The source of these data is PubChem BioAssay AID1458 (National Center for Advancing Translational Sciences (NCATS), 2008).

The structures appear in SMILES notation. Screen size: about 210,000 compounds; about 5,900 (2.8%) were called active. Roughly 5% stayed inconclusive and do not appear here. Calls come from the whole dose curve; as a rule, active = well fitted activation curve with a large enough effect; inconclusive = small, poorly fitted or top-dose-only effect; inactive = no such curve, though single readings can be large or run the other way. The entries are a selection whose mix differs from that of the whole data set. Entries without a call were filed so in the source.
Potency is the fitted concentration of half-maximal effect.

The nature of this test: qHTS Assay for Enhancers of SMN2 Splice Variant Expression. For activity change, positive = activation: % of control where 0% means no effect. Note: nearly all actives have a fitted effect of over 55% in size. The following applies: HEK293 SMN2-luciferase splicing reporter, luminescence, 30-36 h; activity change, positive = activation: at 46.1 µM (top of the series) unless noted. Summed up:
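HEK293 cells carry an SMN2 minigene-luciferase reporter in which exon 7 inclusion puts luciferase in frame. Cells were seeded at 2000 cells/well, attached for 10-12 hours, then exposed to compounds for 30-36 hours at 37C before ONE-Glo luminescence.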
Regarding `Cc1ccc(S(=O)(=O)/C=C2\NC(=O)CS2)cc1`, the activity change, positive = activation turned out to be 30%.
As for `O=C(CCCn1c(=O)c2ccccc2n(CC(=O)NCc2ccco2)c1=O)NCc1ccco1`, the activity change, positive = activation was determined as 66.1%.
As to `COc1ccccc1-n1c(SCC(=O)O)nnc1-c1ccc(S(=O)(=O)N2CCCCC2)cc1`, the activity change, positive = activation was determined as 37.9%.
Consider `O=C1C(Nc2cccc(O)c2)=C(N2CCCCC2)C(=O)c2ccccc21`, for which the “activity change, positive = activation” value is inactive: -30.2%.
`COc1cccc(/C=N/Nc2nccnc2Cl)c1O`: the “activity change, positive = activation” value was inactive: -65.7%.
Still for that read-out and setting: the figure for `O=C(NC12CC3CC(CC(C3)C1)C2)N1CCC(O)CC1` is 44.9%.
As to `COc1ccccc1/C=N/Nc1nncc2ccccc12`, the Potency was active: 10 µM.
With `C=CCn1c(Cc2ccc(OC)cc2)nnc1SCC(N)=O`, the activity change, positive = activation is 54.5%.
Same read-out and setting: the figure for `CCOc1cc(C(=O)Nc2ccc(N3CCN(S(C)(=O)=O)CC3)cc2)cc(OCC)c1OCC` is 36.5%; for `O=C(NCc1ccccc1)c1noc2c1CCCC2` it is 38.6%.
Consider `S=c1[nH]nc(Nc2ccccc2Cl)s1`, for which the activity change, positive = activation was 58.6%.
Turning to `NC(=O)CN1CCN(S(=O)(=O)c2ccc(Br)cc2)CC1`, the activity change, positive = activation is -17.6%.
`Cc1oc(CSCC2CCCO2)cc1C(=O)O` (centres undefined): the activity change, positive = activation worked out at 35.4%.
`COc1ccc(S(=O)(=O)n2cnc3cc(C)c(C)cc32)cc1C`: the activity change, positive = activation was -46%.
Still for that read-out and setting: the figure for `Cc1cc(N2CCN(c3cccc(C(F)(F)F)c3)CC2)n2ncnc2n1` is -32.7%; for `O=C(CCC(=O)N1CCc2ccccc21)Nc1ccccc1` it is 32.7%.
Same read-out and setting: the figure for `COc1cccc(NC(=O)CSc2nnc(-c3cc(C)n(-c4ccccc4)c3C)o2)c1` is inactive: -42.5%; for `Cc1ccccc1-n1c(-c2ccncc2)n[nH]c1=S` it is 45%.
On to `CN(C)CCN=c1cc(-c2ccccc2)oc2ccc(Cl)cc12`, for which the Potency was active: 15.8 µM.
Take `COc1ccccc1N1CCN(C(=O)Cn2nc(C(F)(F)F)c3c2CCC3)CC1`: the activity change, positive = activation came out at 42%.
For `Cc1ccc(C2C3=C(CC(C)(C)CC3=O)Nc3onc(C)c32)cc1` (centres undefined), the activity change, positive = activation was 10.5%.
On the same count and under the same terms, the same measure for `O=C(NCc1cccc(Br)c1)C1CCN(C(=O)c2sccc2-n2cccc2)CC1`: inactive: -33.9%.
In the case of `c1ccc2cc(OCc3nc4ccccc4[nH]3)ccc2c1`, the Potency was active: 2.82 µM.
`COc1ccc2[nH]c(C)c(CCN3C(=O)C4CC=CCC4C3=O)c2c1` (centres undefined): the “activity change, positive = activation” value was inactive: -32.9%.
Regarding `CCCCCC(=O)NC(=S)Nc1cccc(C(C)=O)c1`, the activity change, positive = activation came to 34.4%.
On to `Cc1cc(Cl)c(S(=O)(=O)N2CCN(c3ccc(F)cc3)CC2)cc1OCC(=O)NC1CCCCC1`, for which the “activity change, positive = activation” value is inactive: -77.5%.
Regarding `O=C(c1cnn2c(C(F)F)cc(-c3ccccc3)nc12)N1CCN2CCCC2C1` (centres undefined), the activity change, positive = activation is 37.2%.
`CCn1cc(C(=O)NC2CCCCCC2)c2cc(OC)c(OC)cc2c1=O`: the “activity change, positive = activation” value is inactive: -18.1%.
On the same count and under the same terms, the figure for `COc1ccc(C(=O)/C=C/c2cc(OC)c(O)c(OC)c2)c(F)c1` is -98.5%; for `CCCCn1c(=O)[nH]c(=O)c2c1nc(-c1ccncc1)n2CCOC` it is 30.3%.
Turning to `CCCOC(=O)Cn1c(=O)c2cc3c(=O)n(CC(=O)OCCC)c(=O)c3cc2c1=O`, the activity change, positive = activation worked out at 35.8%.
With `O=C(c1ccc(-n2c(SCc3cc(F)ccc3F)nc3ccccc3c2=O)cc1)N1CCOCC1`, the activity change, positive = activation was -10.4%.
Take `COc1ccccc1C(=O)n1nc(-c2ccccc2)nc1NCc1ccco1`: the Potency was active: 12.6 µM.
As to `COc1ccc(NC(=O)N2CCN(c3cccc(C(F)(F)F)c3)CC2)cc1`, the “activity change, positive = activation” value was inactive: -40.3%.
In the case of `Cn1c(SCC(=O)N/N=C/c2ccc([N+](=O)[O-])s2)nnc1-c1ccccc1`, the “activity change, positive = activation” value was inactive: -59.7%.
Regarding `COc1ccccc1Oc1ccc2c(c1)C(=O)N(c1ccc(O)cc1)C2=O`, the activity change, positive = activation worked out at 33%.
Still for that read-out and setting: the figure for `CC(=O)Nc1cc(C(=O)NCCN2CCN(Cc3ccccc3)CC2)ccc1Sc1ccc(C)cc1` is inactive: -37.8%; for `Cc1nc(NC(=O)CSc2ccccc2N)sc1C` it is 31.9%.
`CCN(CCNC(=O)C1CCCN(Cc2nc(-c3ccc(OC)cc3)oc2C)C1)c1ccccc1` (centres undefined): the “activity change, positive = activation” value is inactive: -33.2%.
In the case of `COCCNc1oc(-c2ccc(C)cc2)nc1C#N`, the Potency is active: 10 µM.
Turning to `COc1ccccc1NC(=S)N(Cc1ccc(Cl)cc1)CC1CCC(C(=O)O)CC1` (centres undefined), the activity change, positive = activation is -51.4%.
Same read-out and setting: the same measure for `N#CNC(N)=Nc1cccc(Cl)c1`: 35.7%; for `C/C(=N/NC(=O)CNC(=O)c1ccccn1)c1ccccc1`: -43.2%; for `CCc1[nH]nc2c1C1(CCN(C(=O)c3ccccc3)CC1)C(C#N)=C(N)O2`: 29.3%.
Turning to `O=C(N/N=C/c1cn(-c2ccccc2)nc1-c1cccs1)c1ccc(Cl)cc1`, the “activity change, positive = activation” value was inactive: -51.9%.
Still for that read-out and setting: the figure for `CCNC(=O)/C(=C/c1cccc([N+](=O)[O-])c1)NC(=O)c1ccc(C)cc1` is 3.05%.
`CCOc1ccc(N(CC(=O)Nc2ccc(C)c(C)c2)S(=O)(=O)c2c(C)noc2C)cc1`: the “activity change, positive = activation” value was inactive: -47%.
For `COc1ccccc1Oc1ccccc1C(=O)O`, the activity change, positive = activation turned out to be 62.8%.
For `Cc1[nH]c2ccccc2c1CC(=O)O`, the activity change, positive = activation was 72.4%.
In the case of `Cc1ccc(S(=O)(=O)N2CCC(C(=O)C3C(=O)CCCC3=O)CC2)cc1`, the activity change, positive = activation is 56.3%.
Regarding `COc1ccc(/C=C/c2nc3ccccc3n2Cc2ccc(OC)c(OC)c2)cc1`, the activity change, positive = activation worked out at 105%.
`O=C(COc1ccc(S(=O)(=O)N2CCCC2)cc1)NCCC1=CCCCC1`: the activity change, positive = activation was determined as 18.8%.
As to `O=C(c1ccc2c(=O)n3c(nc2c1)CCCCC3)N1CCN(C(c2ccccc2)c2ccccc2)CC1`, the “activity change, positive = activation” value was inactive: -41.7%.
Same read-out and setting: the figure for `COc1ccc(C(=O)NNC(=O)C(Cc2ccc(O)cc2)NC(=O)c2ccccc2NC(=O)c2ccc(OC)cc2)cc1` (centres undefined) is 32.9%.
